Results as given in article doi:10.1101/2022.04.12.487993.
These are yes or no findings as the source states them, for the method shown. Binding seen in cells or lysates may run through a third protein. Some binding calls cover weakened binding; strength is not graded here. Tags and fused reporters may be left off the sequences shown.

The chains behind the UniProt entries cited, without tags or fusion partners.
UniProt O75396: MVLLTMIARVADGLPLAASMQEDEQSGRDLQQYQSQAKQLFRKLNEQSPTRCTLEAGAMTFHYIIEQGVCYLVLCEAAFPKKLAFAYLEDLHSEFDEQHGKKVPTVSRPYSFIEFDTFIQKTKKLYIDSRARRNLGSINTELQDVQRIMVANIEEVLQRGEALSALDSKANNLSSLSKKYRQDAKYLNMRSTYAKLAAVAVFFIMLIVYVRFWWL

Tests used:
EGFP-ORP5 = biological target: T1, EGFP-ORP5 (UniProt Q9H0X9); experiment: co-IP
T1 sequence: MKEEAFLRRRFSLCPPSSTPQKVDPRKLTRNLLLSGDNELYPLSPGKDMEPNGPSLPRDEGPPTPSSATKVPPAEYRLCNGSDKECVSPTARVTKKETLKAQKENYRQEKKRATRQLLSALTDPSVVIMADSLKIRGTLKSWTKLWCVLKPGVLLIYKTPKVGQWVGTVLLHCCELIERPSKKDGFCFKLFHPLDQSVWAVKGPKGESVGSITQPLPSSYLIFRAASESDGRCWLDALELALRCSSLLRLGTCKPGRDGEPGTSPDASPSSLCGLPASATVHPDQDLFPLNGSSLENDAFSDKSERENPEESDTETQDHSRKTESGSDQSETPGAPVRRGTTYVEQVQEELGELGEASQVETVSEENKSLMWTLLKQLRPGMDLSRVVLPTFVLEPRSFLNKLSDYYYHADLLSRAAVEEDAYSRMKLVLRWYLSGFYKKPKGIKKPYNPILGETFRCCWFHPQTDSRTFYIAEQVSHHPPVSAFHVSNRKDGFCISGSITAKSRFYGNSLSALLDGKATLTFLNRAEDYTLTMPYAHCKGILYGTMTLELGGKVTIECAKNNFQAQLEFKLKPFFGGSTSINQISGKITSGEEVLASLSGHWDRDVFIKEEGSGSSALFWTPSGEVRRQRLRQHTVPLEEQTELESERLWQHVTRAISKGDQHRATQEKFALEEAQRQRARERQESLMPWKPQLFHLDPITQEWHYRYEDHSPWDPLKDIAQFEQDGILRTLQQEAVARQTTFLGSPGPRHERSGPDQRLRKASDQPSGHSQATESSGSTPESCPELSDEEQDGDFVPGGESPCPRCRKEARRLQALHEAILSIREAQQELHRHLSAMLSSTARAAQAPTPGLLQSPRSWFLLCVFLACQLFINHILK

EGFP-ORP8 = biological target: T2, EGFP-ORP8 (UniProt Q9BZF1); experiment: co-IP
T2 sequence: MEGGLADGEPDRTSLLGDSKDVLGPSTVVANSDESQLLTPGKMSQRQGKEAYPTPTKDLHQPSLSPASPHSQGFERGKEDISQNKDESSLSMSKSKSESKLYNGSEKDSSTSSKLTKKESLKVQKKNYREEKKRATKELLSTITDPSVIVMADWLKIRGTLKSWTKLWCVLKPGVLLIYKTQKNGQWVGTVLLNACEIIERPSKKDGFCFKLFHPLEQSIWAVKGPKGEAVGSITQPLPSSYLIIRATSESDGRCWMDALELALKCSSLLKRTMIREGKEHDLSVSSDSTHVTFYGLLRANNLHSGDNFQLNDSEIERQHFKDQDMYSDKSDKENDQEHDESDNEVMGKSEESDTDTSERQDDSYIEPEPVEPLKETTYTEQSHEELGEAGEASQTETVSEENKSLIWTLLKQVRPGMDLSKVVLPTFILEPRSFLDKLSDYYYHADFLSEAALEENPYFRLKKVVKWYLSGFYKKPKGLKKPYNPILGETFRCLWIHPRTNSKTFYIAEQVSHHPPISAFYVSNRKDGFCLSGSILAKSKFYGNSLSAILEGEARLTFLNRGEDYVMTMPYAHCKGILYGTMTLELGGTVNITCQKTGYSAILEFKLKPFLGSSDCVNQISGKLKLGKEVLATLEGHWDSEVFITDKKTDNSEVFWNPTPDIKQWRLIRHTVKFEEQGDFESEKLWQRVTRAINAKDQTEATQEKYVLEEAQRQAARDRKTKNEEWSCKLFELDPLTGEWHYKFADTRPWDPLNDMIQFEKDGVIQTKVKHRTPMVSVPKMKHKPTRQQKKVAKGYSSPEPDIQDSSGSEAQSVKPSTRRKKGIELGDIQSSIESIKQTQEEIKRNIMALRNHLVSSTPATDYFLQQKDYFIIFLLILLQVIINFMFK

binding (EGFP-ORP5): binds
binding (EGFP-ORP8): binds
Substance: FLAG-Sec22b (from UniProt O75396 1-215)
